Source: publication PMC12160926
Results are given in words; binding and its absence hold for the method and conditions named. Binding seen in cells or lysates may run through a third protein. Some results given as binding are weak or reduced against the parent protein; the word gives no strength.

Protein sequences, listed by entry. Tags and fused reporters are not part of them.
UniProt Q969Q1: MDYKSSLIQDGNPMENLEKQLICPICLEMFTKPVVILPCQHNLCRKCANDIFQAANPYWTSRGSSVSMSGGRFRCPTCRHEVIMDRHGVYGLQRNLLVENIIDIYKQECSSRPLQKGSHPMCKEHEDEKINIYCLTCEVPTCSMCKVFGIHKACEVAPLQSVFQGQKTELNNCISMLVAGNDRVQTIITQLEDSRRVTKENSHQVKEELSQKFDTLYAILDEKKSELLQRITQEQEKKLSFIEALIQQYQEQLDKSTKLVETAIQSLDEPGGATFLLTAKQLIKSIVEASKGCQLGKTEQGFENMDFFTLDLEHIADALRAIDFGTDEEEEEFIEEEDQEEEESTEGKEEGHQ

Experiments:
[1] = target: T1, hexokinase domain-containing 1 (HKDC1) (human (endogenous in HK2)) (UniProt Q2TB90); test: co-IP; lead acetate-treated HK2 cells; anti-HKDC1 antibody and magnetic beads, overnight incubation; immunoblotting; rabbit and mouse IgG as negative controls
T1 sequence: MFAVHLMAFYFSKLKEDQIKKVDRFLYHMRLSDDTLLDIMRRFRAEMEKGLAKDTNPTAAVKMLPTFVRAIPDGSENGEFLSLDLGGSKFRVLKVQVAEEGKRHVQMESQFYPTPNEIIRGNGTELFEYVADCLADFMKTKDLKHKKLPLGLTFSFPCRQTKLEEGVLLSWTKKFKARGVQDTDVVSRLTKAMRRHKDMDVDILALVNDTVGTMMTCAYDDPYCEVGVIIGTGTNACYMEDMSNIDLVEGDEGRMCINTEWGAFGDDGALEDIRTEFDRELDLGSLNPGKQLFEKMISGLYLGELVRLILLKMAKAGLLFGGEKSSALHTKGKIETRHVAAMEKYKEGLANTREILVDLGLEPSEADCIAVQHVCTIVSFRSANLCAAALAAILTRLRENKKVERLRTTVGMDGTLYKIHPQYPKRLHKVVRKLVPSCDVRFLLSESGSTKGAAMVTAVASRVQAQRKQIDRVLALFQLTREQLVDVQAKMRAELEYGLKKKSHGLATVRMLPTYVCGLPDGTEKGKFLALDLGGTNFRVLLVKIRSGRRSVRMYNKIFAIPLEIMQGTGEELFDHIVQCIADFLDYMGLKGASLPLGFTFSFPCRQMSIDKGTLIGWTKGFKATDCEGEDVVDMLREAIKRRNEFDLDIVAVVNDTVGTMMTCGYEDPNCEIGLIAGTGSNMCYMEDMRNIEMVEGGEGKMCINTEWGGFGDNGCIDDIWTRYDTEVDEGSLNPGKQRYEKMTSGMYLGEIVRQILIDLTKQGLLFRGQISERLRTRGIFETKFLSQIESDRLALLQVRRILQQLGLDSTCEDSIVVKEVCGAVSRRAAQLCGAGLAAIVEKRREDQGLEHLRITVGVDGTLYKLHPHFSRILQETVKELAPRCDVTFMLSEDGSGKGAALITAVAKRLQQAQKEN

[2] = target: ATPB (human (endogenous in HK2)) (UniProt P06576); test: co-IP; HK2 cells co-expressing FLAG-Ub, with HKDC1 knock-down or HKDC1 overexpression, with or without MG132; interaction of ATPB and Murf1 read by blot

binding [1] | binding [2] | Substance
binds |  | ATPB (from UniProt P06576 48-529)
 | binds | E3 ligase Murf1 (from UniProt Q969Q1 1-353) (enzyme)
